# Source: PMC9464412
# No constants are given. Whether binding was seen depends on the method and setting. Binding seen in cells or lysates may run through a third protein. These calls come from enrichment with a bait or labelling near it, and not all partners need be listed. Tags and fused reporters may be left off the sequences shown.
# T1: Flag-tagged QKI (Quaking) (UniProt Q9QYS9)
# T1 sequence: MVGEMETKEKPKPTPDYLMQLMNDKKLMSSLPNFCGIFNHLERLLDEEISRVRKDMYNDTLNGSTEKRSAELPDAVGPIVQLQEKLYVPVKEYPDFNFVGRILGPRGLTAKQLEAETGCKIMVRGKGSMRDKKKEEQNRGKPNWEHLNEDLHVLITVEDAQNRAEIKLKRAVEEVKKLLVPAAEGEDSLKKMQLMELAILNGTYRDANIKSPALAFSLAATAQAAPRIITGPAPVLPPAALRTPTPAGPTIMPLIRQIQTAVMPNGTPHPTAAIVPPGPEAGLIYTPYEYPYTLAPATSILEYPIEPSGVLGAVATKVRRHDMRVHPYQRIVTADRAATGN
# Target: T1, Flag-tagged QKI (Quaking)
# Assay: affinity purification with mass spectrometry; RAW264.7 cells transfected with Flag-QKI or control vector for 36 h, with or without bacterial infection for 4 h; QKI-IP complex analysed by iTRAQ LC-MS/MS
row,Binder,binding
1,"EDC3, endogenous (protein, UniProt Q8K2D3 1-508) MAMDWLGSIVSINCGDSLGVYQGRVSAVDQVSQTISLTRPFHNGVKCLVPEVTFRAGDITELKILEIPGPGDNQQVGDLHQTELGPSGVGYQMSISQNGTGKVVKKPASSSSAPQSIPKRTDVKSQDVAISPQQQQCSKSYVDRHMESLSQSKSFRRRHNSWSSSSRHPNQATPKKSGLKNGQMKNKDDECFGDDIEELPDTDFDFEGNLALFDKAAVFEEIDTYERRSGSRSRGVPNERPARYRHDENILESEPIVYRRITVPHSVSKEFCTDSGLVVPSVSYELHKKLLSVAEKHGLTLERRLEMTGVCASQMALTLLGGPNRLNPKNVHQRPTVALLCGPHVKGAQGISCGRHLANHDVQVILFLPNFVKMLESITNELSLFSKTQGQQVSSLRDLPASPVDLVINCLDCPENAFLRDQPWYKAAVAWANQNRAPVLSIDPPVHEVEQGIDAKWSLALGLPLPLGEHAGRVYLCDIGIPQQVFQEVGINYHSPFGCKFVIPLHSA",binds
2,"Ring finger protein 6 (RNF6), endogenous (enzyme, UniProt Q9DBU5 1-667) MDPSRSRSGGSGEESSFQENERRWQQERLHREEAYYQFINELSDEDYRLMRDHNLLGTPGEITSEELQQRLERAKEQLASQPGSDSAASDGDSESLRAHSDEDSLLRWLNTFRRTGNVTRSGQNGNQSWRAVSRTNPNSGEFGFSLEIHINPDNRGSEMHGEDSTDIPLSGVNREHRQQRPSSPVARRTRSQTSMSSSGPRGRRGARRQGSVQGSFATLGRLRNGIGVALGVPRVSAPRTNVINSHTNQSDGSTLRQGGRQRFGAAHIWENGARSNVTVRNTNQRLEPIRLRPAFSSRSRSPIQRQNGTVHHNSQRQGRPVQQTGRNRSVRHRGVTRVFLEQGREHRGTDYTPLSNSRLVSRITVEEGESSRSSAATQRHPAITLDLQVRRIRPGETRDRDSIANRTRSRAGLAESTVESTSGGFHRTISHLERSGVRTYVSTITVPLRRISENDVVEPSSVALRSILRQIMTGFGELSSLMEVEPASENQSNGQRLPEVYLELSNGDAADDSGQHGRASSQASQAQDGAEMLAVREPAPPQARPSGSRSRRQLGRADSVVEAGTLPILRLAHFFLLNEGDDDPIRGLTKEQIDNLSTRSYEQDGVDSELGKVCSVCISDYVAGNKLRQLPCLHEFHIHCIDRWLSENCTCPVCRRPVLEFGATSSG",binds
3,"Msl2, endogenous (enzyme, UniProt Q69ZF8 1-577) MNPVNATALYISASRLVLNYDPGDPKAFTEINRLLPYFRQSLSCCVCGHLLQDPIAPTNSTCQHYVCKTCKGKKMMMKPSCSWCKDYEQFEENKQLSILVNCYKKLCEYITQTTLARDIIEAVDCSSDILALLNDGSLFCEETEKPSDSSFTLCLTHSPLPSTSEPTADPQASLSPMSESTLSIAIGSSVINGLPTYNGLSIDRFGINIPSPEHPNTIDVCNTVDIKTEDLSDNLPPVCDTVATDLCSTGIDICSFSEDIKPGDSLLLSVEEVLRSLETVSNTEVCCPNLQPNLEATVSNGPFLQLSSQSLSHNVFMSTSPALHGLSCTAATPKVAKLNRKRSRSESDSEKVQPLPISTIIRGPTLGASAPVTVKRESKISLQPIATVPNGGTTPKISKTVLLSTKSMKKSHEHGSKKSHSKSKPGILKKDKAVKEKMPSHHFMPGSPTKTVYKKPQEKKGCKCGRATQNPSVLTCRGQRCPCYSNRKACLDCICRGCQNSYMANGEKKLEAFAVPEKALEQTRLTLGINVTSIAVRNASTSTSVINVTGSPVTTFLAASTHDDKSLDEAIDMRFDC",binds
